Taken from: PubChem BioAssay AID1259254 (NCATS, 2017)
The whole screen tested about 59,000 reagents; this is a part drawn at random. About 1,550 of all reagents (2.6%) were called active. 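G2 share is only a proxy for re-replication; each gene was hit by three separate siRNAs, and active genes were retested.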 Entries without a mark were called inactive. Reagents against one gene are numbered here. Not all columns of the deposit are shown. Not stated in the record: the amount of reagent.

Test: 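Finding genes that stop cells copying their DNA twice in one cycle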 (primary screen)
Cells: human HCT116 colorectal cancer cells
Knock-down reagent: single siRNA against human genes
Timing: 3 days
Measured: 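Nuclei stained with Hoechst and imaged; cell-cycle phase assigned by DNA content; G2 share scaled per plate, non-targeting siRNA 0%, GMNN siRNA 100%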
Direction: G2 robust z-score and G2 cells, % of GMNN control: higher = more G2 cells, more excess DNA replication
Active means: 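An siRNA counts as active if its G2 robust z-score lies at least 5 MADs above the screen median; here such calls match roughly 38% of GMNN control or more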

{"Gene":"GUSBP1","reagent no.":1,"G2 robust z-score":-0.683,"G2 cells, % of GMNN control":-1.84}
{"Gene":"GUSBP1","reagent no.":2,"G2 robust z-score":1.11,"G2 cells, % of GMNN control":10.8}
{"Gene":"GUSBP1","reagent no.":3,"G2 robust z-score":1.46,"G2 cells, % of GMNN control":13.3}
{"Gene":"NARS2","reagent no.":1,"G2 robust z-score":-0.121,"G2 cells, % of GMNN control":2.12}
{"Gene":"NARS2","reagent no.":2,"G2 robust z-score":1.22,"G2 cells, % of GMNN control":11.6}
{"Gene":"NARS2","reagent no.":3,"G2 robust z-score":0.924,"G2 cells, % of GMNN control":9.47}
{"Gene":"MED24","reagent no.":1,"G2 robust z-score":0.214,"G2 cells, % of GMNN control":4.48}
{"Gene":"MED24","reagent no.":2,"G2 robust z-score":-1.3,"G2 cells, % of GMNN control":-6.19}
{"Gene":"MED24","reagent no.":3,"G2 robust z-score":0.279,"G2 cells, % of GMNN control":4.93}
{"Gene":"SUSD2P1","reagent no.":1,"G2 robust z-score":-0.767,"G2 cells, % of GMNN control":-2.43}
{"Gene":"SUSD2P1","reagent no.":2,"G2 robust z-score":0.962,"G2 cells, % of GMNN control":9.73}
{"Gene":"SUSD2P1","reagent no.":3,"G2 robust z-score":-0.598,"G2 cells, % of GMNN control":-1.24}
